PubChem BioAssay AID1259405 – NCATS | 2018
In all, the deposit lists about 50,000 reagents; shown is a random part of them. Of all reagents, about 4,000 (8%) got an active call. 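Mouse siRNA library applied to hamster cells; one well for each siRNA.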 Reagents against one gene are numbered here.

Aim: 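Silenced genes that increase secreted GFP made by CHO cells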 (primary screen)
System: Chinese hamster CHO-K1 ovary cells with stable secreted eGFP expression
Reagent: single siRNA against mouse genes, 0.8 pmol siRNA per well (2 µl of 400 nM stock)
Duration: 3 days
Measurement: 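Per-well intracellular GFP measured by laser scanning cytometry, plus viability from ATP luminescence, each relative to plate median of non-targeting control wells, in %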
Direction: GFP, % of control: higher = more GFP per well, higher productivity; viability (ATP), % of control: higher = more viable cells (more ATP)
Hit rule: 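Called active when intracellular GFP, relative to negative control, is at or above 120%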

The first 4 entries, ahead of the listing:
gene symbol	reagent	GFP, % of control	viability (ATP), % of control	call
Rplp1 (ribosomal protein lateral stalk subunit P1)	1	108	70.1	inactive
Rplp1 (ribosomal protein lateral stalk subunit P1)	2	64.8	50.5	inactive
Rplp1 (ribosomal protein lateral stalk subunit P1)	3	47.7	41.7	inactive
3010003L21Rik (RIKEN cDNA 3010003L21 gene)	1	62.7	72.1	inactive

The list itself, from the first entry:
gene symbol	reagent	GFP, % of control	viability (ATP), % of control	call
Rplp1 (ribosomal protein lateral stalk subunit P1)	1	108	70.1	inactive
Rplp1 (ribosomal protein lateral stalk subunit P1)	2	64.8	50.5	inactive
Rplp1 (ribosomal protein lateral stalk subunit P1)	3	47.7	41.7	inactive
3010003L21Rik (RIKEN cDNA 3010003L21 gene)	1	62.7	72.1	inactive
3010003L21Rik (RIKEN cDNA 3010003L21 gene)	2	57.4	67.5	inactive
3010003L21Rik (RIKEN cDNA 3010003L21 gene)	3	78.3	78	inactive
Actr3b (ARP3 actin-related protein 3B)	1	94.6	81.1	inactive
Actr3b (ARP3 actin-related protein 3B)	2	82.9	107	inactive
Zfp106 (zinc finger protein 106)	1	71.9	98.9	inactive
Zfp106 (zinc finger protein 106)	2	61.8	87.2	inactive
Madcam1 (mucosal vascular addressin cell adhesion molecule 1)	1	67.8	68.5	inactive
Madcam1 (mucosal vascular addressin cell adhesion molecule 1)	2	66.5	36.2	inactive
Madcam1 (mucosal vascular addressin cell adhesion molecule 1)	3	89.7	58.9	inactive
Msl3l2 (MSL3 like 2)	1	116	70	inactive
Msl3l2 (MSL3 like 2)	2	78.7	77.2	inactive
Msl3l2 (MSL3 like 2)	3	46.3	45	inactive
Kcnf1 (potassium voltage-gated channel, subfamily F, member 1)	1	62.5	52.8	inactive
Kcnf1 (potassium voltage-gated channel, subfamily F, member 1)	2	59.7	79.5	inactive
Kcnf1 (potassium voltage-gated channel, subfamily F, member 1)	3	49.5	72.1	inactive
Odf2 (outer dense fiber of sperm tails 2)	1	39.9	41	inactive
Odf2 (outer dense fiber of sperm tails 2)	2	115	79.4	inactive
Odf2 (outer dense fiber of sperm tails 2)	3	61.1	72.2	inactive
Tmem140 (transmembrane protein 140)	1	96.6	112	inactive
Tmem140 (transmembrane protein 140)	2	81.6	85.1	inactive
Tmem140 (transmembrane protein 140)	3	48.6	95.6	inactive
Pigw (phosphatidylinositol glycan anchor biosynthesis, class W)	1	85.9	109	inactive
Pigw (phosphatidylinositol glycan anchor biosynthesis, class W)	2	64	68.5	inactive
Pigw (phosphatidylinositol glycan anchor biosynthesis, class W)	3	84.7	13	inactive
Rbmy (RNA binding motif protein, Y chromosome)	1	50.8	59.3	inactive
Rbmy (RNA binding motif protein, Y chromosome)	2	81.5	71.4	inactive
Rbmy (RNA binding motif protein, Y chromosome)	3	79.2	93.3	inactive
Cacna2d2 (calcium channel, voltage-dependent, alpha 2/delta subunit 2)	1	91.3	60.9	inactive
Cacna2d2 (calcium channel, voltage-dependent, alpha 2/delta subunit 2)	2	68.7	41.4	inactive
Cacna2d2 (calcium channel, voltage-dependent, alpha 2/delta subunit 2)	3	85.7	95.4	inactive
